Assay results: article PMC8129138
Read-outs that look alike come from different tables or passages of the source. Results are given in words; binding and its absence hold for the method and conditions named. In cells and extracts the contact can be indirect. Here binding means that the protein was enriched with, or labelled near, the bait; the list need not be complete. Each block holds one molecule with its values, some of them ahead of it.

Sequences of proteins named here, by UniProt entry; tags and fusion partners are left off.
UniProt Q9H1P3: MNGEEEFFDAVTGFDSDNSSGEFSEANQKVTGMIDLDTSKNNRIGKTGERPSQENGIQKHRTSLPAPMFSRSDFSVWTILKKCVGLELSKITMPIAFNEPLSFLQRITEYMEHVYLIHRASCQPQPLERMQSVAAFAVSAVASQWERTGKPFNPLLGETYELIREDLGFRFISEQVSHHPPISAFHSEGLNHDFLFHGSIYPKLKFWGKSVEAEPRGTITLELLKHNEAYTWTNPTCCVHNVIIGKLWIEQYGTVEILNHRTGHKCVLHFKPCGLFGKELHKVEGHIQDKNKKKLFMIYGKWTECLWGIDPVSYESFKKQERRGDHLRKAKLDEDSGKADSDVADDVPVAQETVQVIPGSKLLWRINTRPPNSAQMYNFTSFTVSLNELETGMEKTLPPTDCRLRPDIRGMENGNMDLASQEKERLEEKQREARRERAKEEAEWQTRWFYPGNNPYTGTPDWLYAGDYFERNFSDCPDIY
UniProt P35222: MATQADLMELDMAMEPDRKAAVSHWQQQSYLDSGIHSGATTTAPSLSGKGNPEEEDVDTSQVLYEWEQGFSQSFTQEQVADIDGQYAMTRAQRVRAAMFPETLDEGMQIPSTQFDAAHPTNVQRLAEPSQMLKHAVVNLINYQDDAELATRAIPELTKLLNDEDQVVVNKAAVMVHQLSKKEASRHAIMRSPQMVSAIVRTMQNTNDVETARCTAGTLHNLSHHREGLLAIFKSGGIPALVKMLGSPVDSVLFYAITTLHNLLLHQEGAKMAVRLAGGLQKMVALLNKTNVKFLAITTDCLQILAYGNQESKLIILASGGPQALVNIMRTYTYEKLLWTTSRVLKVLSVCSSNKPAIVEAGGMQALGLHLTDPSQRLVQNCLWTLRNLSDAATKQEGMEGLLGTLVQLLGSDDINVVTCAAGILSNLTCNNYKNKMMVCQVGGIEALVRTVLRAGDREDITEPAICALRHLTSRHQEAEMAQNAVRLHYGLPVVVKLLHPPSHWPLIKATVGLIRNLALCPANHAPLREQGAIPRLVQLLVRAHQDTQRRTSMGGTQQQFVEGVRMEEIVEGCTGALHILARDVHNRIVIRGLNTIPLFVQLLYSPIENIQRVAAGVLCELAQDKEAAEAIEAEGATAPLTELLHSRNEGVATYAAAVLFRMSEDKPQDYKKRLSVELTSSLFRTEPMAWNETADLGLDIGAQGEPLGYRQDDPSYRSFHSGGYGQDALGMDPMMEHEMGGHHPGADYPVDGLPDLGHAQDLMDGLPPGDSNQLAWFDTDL
UniProt Q9Y5T5: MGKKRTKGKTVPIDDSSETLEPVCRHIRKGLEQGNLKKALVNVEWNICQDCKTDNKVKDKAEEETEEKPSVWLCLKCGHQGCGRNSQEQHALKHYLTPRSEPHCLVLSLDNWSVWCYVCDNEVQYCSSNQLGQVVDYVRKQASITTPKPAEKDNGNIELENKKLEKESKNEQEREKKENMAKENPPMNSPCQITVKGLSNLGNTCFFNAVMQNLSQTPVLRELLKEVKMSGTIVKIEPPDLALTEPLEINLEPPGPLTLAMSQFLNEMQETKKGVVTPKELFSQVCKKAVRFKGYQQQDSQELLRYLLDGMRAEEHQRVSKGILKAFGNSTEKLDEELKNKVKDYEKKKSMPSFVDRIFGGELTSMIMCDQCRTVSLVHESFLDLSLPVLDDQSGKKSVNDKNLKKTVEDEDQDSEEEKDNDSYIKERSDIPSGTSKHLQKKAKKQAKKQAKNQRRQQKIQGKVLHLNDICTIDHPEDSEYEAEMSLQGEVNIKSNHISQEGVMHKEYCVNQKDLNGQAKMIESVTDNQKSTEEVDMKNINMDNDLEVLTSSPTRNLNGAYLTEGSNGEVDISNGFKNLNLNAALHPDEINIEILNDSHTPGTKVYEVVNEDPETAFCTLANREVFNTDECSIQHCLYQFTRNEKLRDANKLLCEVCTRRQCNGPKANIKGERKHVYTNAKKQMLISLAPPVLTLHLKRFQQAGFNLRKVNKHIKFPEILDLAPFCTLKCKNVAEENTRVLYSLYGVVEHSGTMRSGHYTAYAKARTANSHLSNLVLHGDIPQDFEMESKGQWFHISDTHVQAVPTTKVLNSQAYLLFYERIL

How the values were obtained:
[1] = target: FLAG-tagged OSBPL2 (oxysterol-binding protein-like 2) (UniProt Q9H1P3); test: affinity purification with mass spectrometry; lysate of HEK293T cells transfected with FLAG-tagged OSBPL2, immunoprecipitated with anti-FLAG-tag M2 antibody (normal IgG as negative control); protein bands analysed by LC-MS/MS
[2] = target: FLAG-tagged OSBPL2 (oxysterol-binding protein-like 2) (UniProt Q9H1P3); test: as above; remark: listed apart in the source

binding [1]: binds
Molecule: β-catenin found in the OSBPL2 interactome of HEK293T cells (from UniProt P35222 1-781)

binding [1]: binds
Molecule: USP16 (from UniProt Q9Y5T5 1-823)

binding [2]: binds
B1: USP39 (protein, UniProt Q53GS9 1-565)
chain: MSGRSKRESRGSTRGKRESESRGSSGRVKRERDREREPEAASSRGSPVRVKREFEPASAREAPASVVPFVRVKREREVDEDSEPEREVRAKNGRVDSEDRRSRHCPYLDTINRSVLDFDFEKLCSISLSHINAYACLVCGKYFQGRGLKSHAYIHSVQFSHHVFLNLHTLKFYCLPDNYEIIDSSLEDITYVLKPTFTKQQIANLDKQAKLSRAYDGTTYLPGIVGLNNIKANDYANAVLQALSNVPPLRNYFLEEDNYKNIKRPPGDIMFLLVQRFGELMRKLWNPRNFKAHVSPHEMLQAVVLCSKKTFQITKQGDGVDFLSWFLNALHSALGGTKKKKKTIVTDVFQGSMRIFTKKLPHPDLPAEEKEQLLHNDEYQETMVESTFMYLTLDLPTAPLYKDEKEQLIIPQVPLFNILAKFNGITEKEYKTYKENFLKRFQLTKLPPYLIFCIKRFTKNNFFVEKNPTIVNFPITNVDLREYLSEEVQAVHKNTTYDLIANIVHDGKPSEGSYRIHVLHHGTGKWYELQDLQVTDILPQMITLSEAYIQIWKRRDNDETNQQGA
